Our source for the binding values is publication PMC6214133.

Chains of the proteins cited; added tags and fusions are not shown. Lines headed by an entry give the natural chain unless they say otherwise; changes in a name come on top.
UniProt Q8IZW8: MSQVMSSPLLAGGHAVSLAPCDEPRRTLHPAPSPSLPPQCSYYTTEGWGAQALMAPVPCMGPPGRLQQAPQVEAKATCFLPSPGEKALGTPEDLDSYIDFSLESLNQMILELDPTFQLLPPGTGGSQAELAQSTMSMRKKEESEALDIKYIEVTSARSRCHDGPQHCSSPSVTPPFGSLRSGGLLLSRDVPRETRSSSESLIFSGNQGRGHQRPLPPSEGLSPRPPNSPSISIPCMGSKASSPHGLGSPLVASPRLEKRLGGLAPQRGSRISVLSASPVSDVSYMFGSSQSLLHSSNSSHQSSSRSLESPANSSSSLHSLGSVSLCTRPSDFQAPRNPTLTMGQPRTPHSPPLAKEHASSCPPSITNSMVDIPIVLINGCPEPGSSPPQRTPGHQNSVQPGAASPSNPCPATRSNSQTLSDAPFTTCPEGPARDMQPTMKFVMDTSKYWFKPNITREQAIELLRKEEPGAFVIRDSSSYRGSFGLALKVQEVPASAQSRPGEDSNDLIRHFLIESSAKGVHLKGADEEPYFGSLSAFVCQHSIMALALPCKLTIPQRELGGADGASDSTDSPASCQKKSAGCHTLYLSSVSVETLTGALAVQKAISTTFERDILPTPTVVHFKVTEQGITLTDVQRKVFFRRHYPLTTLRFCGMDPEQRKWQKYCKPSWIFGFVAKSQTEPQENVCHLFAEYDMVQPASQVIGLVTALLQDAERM
UniProt P05556: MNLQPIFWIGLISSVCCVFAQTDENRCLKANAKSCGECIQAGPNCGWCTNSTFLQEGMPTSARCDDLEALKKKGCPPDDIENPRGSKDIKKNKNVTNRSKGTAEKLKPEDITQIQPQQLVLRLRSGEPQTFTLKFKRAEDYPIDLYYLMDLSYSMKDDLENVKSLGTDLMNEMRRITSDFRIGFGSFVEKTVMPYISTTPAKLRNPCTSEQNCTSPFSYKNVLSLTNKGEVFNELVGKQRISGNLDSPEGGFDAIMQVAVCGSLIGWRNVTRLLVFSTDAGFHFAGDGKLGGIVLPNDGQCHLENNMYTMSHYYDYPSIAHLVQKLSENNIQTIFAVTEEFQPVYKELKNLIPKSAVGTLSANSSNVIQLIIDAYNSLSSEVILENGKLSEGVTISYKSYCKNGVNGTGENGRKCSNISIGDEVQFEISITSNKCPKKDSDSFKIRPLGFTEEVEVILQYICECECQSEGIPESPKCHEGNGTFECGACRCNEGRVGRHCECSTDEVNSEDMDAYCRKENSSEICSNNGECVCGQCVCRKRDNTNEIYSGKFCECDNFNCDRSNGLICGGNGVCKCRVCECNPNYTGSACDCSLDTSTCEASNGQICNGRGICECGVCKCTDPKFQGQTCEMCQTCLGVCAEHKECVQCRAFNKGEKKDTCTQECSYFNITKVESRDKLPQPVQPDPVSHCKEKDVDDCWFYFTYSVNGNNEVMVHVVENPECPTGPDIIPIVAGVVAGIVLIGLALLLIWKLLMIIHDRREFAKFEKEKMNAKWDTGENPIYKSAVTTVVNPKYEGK

No constants are given. Whether binding was seen depends on the method and setting. In cells and extracts the contact can be indirect. A result given as binding can be weak or reduced; the word gives no strength.

For the experiment, the target named is C-terminal tensin-like protein (CTEN) (human (endogenous in RWPE-1)) (UniProt Q8IZW8). The experiment can be described thus: co-IP; RWPE-1 whole cell lysate (500 μg); precipitated with 2 μg anti-CTEN antibody or nonspecific rabbit IgG, 4 °C for 4 h, then protein A-Sepharose for 1 h; buffer 0.1% Triton X-100, 25 mM Tris-HCl pH 8.0, 50 mM NaCl, 0.2 mM EDTA; immunoblot with anti-integrin β1 and anti-CTEN. In general terms: In western blotting, separated proteins are transferred to a membrane and probed.

“integrin β1 (from UniProt P05556 21-798) (receptor)”: the binding result was “binds”.
